Experimental data as given in paper PMC10958042.
Results are given in words; binding and its absence hold for the method and conditions named. Binding seen in cells or lysates may run through a third protein. Some binding calls cover weakened binding; strength is not graded here. Sequences can lack the tags named with a protein.

Assays:
Experiment in all cases: co-IP; LUMIER luminescence-based co-immunoprecipitation: Protein A-ATGL variant and firefly-luciferase partner co-expressed in HEK293T, SDS-free RIPA2 lysate precipitated in IgG-coated plates 2 h at 4 °C, luminescence read; log2 fold change against wild-type ATGL, two experiments in triplicate
[1] = biological target: T1, Protein A-ATGL A104E (human) (UniProt Q96AD5)
T1 sequence: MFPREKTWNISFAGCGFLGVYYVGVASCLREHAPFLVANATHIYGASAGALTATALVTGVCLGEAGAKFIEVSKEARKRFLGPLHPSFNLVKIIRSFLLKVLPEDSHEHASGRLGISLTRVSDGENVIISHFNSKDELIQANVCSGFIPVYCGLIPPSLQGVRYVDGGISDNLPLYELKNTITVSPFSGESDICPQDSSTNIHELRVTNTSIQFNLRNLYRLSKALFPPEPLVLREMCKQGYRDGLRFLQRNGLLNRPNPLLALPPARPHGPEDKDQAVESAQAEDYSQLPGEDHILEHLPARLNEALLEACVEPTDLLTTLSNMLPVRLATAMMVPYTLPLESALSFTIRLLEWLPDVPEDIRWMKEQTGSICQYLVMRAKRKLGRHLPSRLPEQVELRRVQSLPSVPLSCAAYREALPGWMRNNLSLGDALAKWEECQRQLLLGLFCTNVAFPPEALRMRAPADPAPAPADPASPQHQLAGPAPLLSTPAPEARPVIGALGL

[2] = biological target: T2, Protein A-ATGL L102K (human) (UniProt Q96AD5)
T2 sequence: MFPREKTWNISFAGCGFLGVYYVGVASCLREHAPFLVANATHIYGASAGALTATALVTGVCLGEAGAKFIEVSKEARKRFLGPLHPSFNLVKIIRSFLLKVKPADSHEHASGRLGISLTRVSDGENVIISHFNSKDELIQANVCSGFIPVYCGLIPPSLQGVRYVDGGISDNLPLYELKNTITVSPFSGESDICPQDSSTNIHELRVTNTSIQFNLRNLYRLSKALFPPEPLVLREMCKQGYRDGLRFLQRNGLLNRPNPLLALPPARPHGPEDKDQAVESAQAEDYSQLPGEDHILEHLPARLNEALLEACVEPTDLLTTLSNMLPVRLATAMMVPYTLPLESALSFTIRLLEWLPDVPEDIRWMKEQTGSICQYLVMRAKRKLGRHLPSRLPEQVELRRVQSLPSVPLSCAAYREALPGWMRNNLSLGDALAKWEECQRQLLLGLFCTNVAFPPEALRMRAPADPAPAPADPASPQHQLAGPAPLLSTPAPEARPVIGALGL

[3] = biological target: T3, Protein A-ATGL R351L (human) (UniProt Q96AD5)
T3 sequence: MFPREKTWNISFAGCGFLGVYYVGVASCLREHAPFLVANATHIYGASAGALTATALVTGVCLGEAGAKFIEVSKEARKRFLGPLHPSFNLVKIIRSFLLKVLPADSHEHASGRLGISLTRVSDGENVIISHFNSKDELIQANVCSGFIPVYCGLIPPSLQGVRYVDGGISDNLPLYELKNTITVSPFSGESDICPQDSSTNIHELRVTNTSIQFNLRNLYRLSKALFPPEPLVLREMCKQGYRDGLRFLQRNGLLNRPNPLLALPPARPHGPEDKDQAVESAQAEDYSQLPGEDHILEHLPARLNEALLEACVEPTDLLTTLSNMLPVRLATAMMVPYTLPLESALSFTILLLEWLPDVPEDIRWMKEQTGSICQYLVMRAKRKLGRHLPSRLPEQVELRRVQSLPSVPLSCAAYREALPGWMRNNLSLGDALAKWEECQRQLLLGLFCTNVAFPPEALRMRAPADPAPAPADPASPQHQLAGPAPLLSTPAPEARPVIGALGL

[4] = biological target: T4, Protein A-ATGL L159A (human) (UniProt Q96AD5)
T4 sequence: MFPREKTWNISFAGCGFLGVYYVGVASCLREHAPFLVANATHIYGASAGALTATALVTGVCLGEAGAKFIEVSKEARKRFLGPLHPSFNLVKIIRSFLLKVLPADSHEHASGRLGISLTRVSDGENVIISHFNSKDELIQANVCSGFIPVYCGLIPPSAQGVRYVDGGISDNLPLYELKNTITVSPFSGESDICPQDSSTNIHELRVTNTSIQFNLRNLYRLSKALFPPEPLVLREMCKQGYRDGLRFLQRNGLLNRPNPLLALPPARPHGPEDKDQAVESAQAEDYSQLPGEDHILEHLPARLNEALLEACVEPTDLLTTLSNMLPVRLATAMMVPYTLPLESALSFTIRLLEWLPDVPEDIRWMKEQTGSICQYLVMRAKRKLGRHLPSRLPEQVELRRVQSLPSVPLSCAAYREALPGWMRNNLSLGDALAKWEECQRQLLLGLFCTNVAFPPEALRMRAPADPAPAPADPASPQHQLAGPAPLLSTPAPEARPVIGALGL

Row | Binder | binding [1] | binding [2] | binding [3] | binding [4]
1 | CGI-58 wild type, firefly-luciferase fusion (protein, UniProt Q8WTS1 1-349) MAAEEEEVDSADTGERSGWLTGWLPTWCPTSISHLKEAEEKMLKCVPCTYKKEPVRISNGNKIWTLKFSHNISNKTPLVLLHGFGGGLGLWALNFGDLCTNRPVYAFDLLGFGRSSRPRFDSDAEEVENQFVESIEEWRCALGLDKMILLGHNLGGFLAAAYSLKYPSRVNHLILVEPWGFPERPDLADQDRPIPVWIRALGAALTPFNPLAGLRIAGPFGLSLVQRLRPDFKRKYSSMFEDDTVTEYIYHCNVQTPSGETAFKNMTIPYGWAKRPMLQRIGKMHPDIPVSVIFGARSCIDGNSGTSIQSLRPHSYVKTIAILGAGHYVYADQPEEFNQKVKEICDTVD | binds | binds | – | –
2 | murine Plin5 wild type, firefly-luciferase fusion (protein, UniProt Q8BVZ1 1-463) MDQRGEDTTLAPHSRMSGDQTAQDPGSSLGELDQQNVVNRVVALPLVKATCTAVSSAYNSAKDRHPLLGSACRLAEHCVCSVTTCALDHAQPLLEHLQPQLATVNDLACRGLDKLEEKLPFLQQPSDMVVTSAKDTVAKSVTGMVDLAQRGRRWSGELRRSMSQAMDMVLGKSEKLVDRFLPMTEAELAVLAAEAEGPEVGTVEEQRQQQGYFVRLGSLSARLRHLAYEHSLGKLRQSKHRTQEMLAQLQETLELIQHMQRGASPSPTFHPPKTQELWGSWSPCLENGRSHSEVELETLALSRSLTLELQNAVDALAGCVRGLPPSAQAKVAEVQRSVDALQATFADAHCLGDVAPTALAEGRGSVARAHACVDEFLDLVLRAMPLPWLVGPFAPILVEQSEPLINLATCVDEVVGDPDPRWAHMDWPAQKRAWEAESADPGGQEAEPPRGQGKHTMMPELDF | binds | binds | binds | –
3 | G0S2 wild type, firefly-luciferase fusion (protein, UniProt P27469 1-103) METVQELIPLAKEMMAQKRKGKMVKLYVLGSVLALFGVVLGLMETVCSPFTAARRLRDQEAAVAELQAALERQALQKQALQEKGKQQDTVLGGRALSNRQHAS | binds | – | binds | –
4 | CIDEC wild type, firefly-luciferase fusion (protein, UniProt Q96AQ7 1-238) MEYAMKSLSLLYPKSLSRHVSVRTSVVTQQLLSEPSPKAPRARPCRVSTADRSVRKGIMAYSLEDLLLKVRDTLMLADKPFFLVLEEDGTTVETEEYFQALAGDTVFMVLQKGQKWQPPSEQGTRHPLSLSHKPAKKIDVARVTFDLYKLNPQDFIGCLNVKATFYDTYSLSYDLHCCGAKRIMKEAFRWALFSMQATGHVLLGTSCYLQQLLDATEEGQPPKGKASSLIPTCLKILQ | binds | binds | binds | binds
5 | murine Plin1 wild type, firefly-luciferase fusion (protein, UniProt Q8CGN5 1-517) MSMNKGPTLLDGDLPEQENVLQRVLQLPVVSGTCECFQKTYNSTKEAHPLVASVCNAYEKGVQGASNLAAWSMEPVVRRLSTQFTAANELACRGLDHLEEKIPALQYPPEKIASELKGTISTRLRSARNSISVPIASTSDKVLGATLAGCELALGMAKETAEYAANTRVGRLASGGADLALGSIEKVVEFLLPPDKESAPSSGRQRTQKAPKAKPSLVRRVSTLANTLSRHTMQTTAWALKQGHSLAMWIPGVAPLSSLAQWGASAAMQVVSRRQSEVRVPWLHNLAASQDESHDDQTDTEGEETDDEEEEEESEAEENVLREVTALPNPRGLLGGVVHTVQNTLRNTISAVTWAPAAVLGTVGRILHLTPAQAVSSTKGRAMSLSDALKGVTDNVVDTVVHYVPLPRLSLMEPESEFRDIDNPSAEAERKGSGARPASPESTPRPGQPRGSLRSVRGLSAPSCPGLDDKTEASARPGFLAMPREKPARRVSDSFFRPSVMEPILGRAQYSQLRKKS | – | binds | binds | –
